# Listed are the inconclusive results; actives and inactives stand elsewhere. How the source made its calls: active means hit-call score of the fitted dose curve at least 0.9, where 1 is the maximum; inconclusive means response in the unintended direction; inactive means score below 0.9. Potencies of inconclusive entries are doubtful fits and often do not repeat.
# Amino acid sequences for entries named in this document (tags omitted).
# UniProt P03372, whole entry, looked up: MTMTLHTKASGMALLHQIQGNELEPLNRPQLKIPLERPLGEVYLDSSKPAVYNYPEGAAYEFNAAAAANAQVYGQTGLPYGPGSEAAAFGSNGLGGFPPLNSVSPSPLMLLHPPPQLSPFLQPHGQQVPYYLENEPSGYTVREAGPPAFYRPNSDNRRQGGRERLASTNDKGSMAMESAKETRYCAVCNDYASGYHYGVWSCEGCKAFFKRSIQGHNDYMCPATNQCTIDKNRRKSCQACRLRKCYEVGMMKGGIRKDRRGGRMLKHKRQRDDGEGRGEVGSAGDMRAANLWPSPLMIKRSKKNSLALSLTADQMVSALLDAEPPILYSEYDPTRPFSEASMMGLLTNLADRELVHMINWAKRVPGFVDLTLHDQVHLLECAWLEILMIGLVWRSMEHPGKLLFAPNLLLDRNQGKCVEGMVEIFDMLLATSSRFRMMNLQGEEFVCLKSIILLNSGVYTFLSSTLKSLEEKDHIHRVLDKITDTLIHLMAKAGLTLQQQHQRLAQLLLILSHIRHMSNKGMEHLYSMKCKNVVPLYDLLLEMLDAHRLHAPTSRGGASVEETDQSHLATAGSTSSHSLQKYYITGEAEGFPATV
# Molecular target: Estrogen receptor (Homo sapiens) (UniProt P03372)
# Assay: ATG_hERa_EcoTox2: Attagene TRANS-FACTORIAL EcoTox-2 HepG2 Assay for human Estrogen Receptor (ER)
# Method: ATG_EcoTox2 is a cell-based, multiplexed assay created by modifying the existing Attagene TRANS-FACTORIAL system to include a panel of nuclear receptors from some or all the following species: human (Homo sapiens), african clawed frog (Xenopus laevis), rainbow trout (Oncorhynchus mykiss), japanese medaka (Oryzias latipes), and zebrafish (Danio rerio). The ECOTOX2-FACTORIAL format uses HepG2, a human liver cell line, with measurements taken at 24 hours after chemical dosing in a 24-well plate. ATG_hERa_EcoTox2 is one of 29 assay components measured or calculated from the ATG_EcoTox2 assay. It is designed to make measurements of mRNA induction, a form of inducible reporter, as detected with fluorescence intensity signals by Reverse transcription polymerase chain reaction (RT-PCR) and Capillary electrophoresis technology.The assay endpoint ATG_hERa_EcoTox2 was analyzed in the positive analysis fitting direction relative to DMSO as the negative control and baseline of activity. Using a type of inducible reporter, measures of mRNA for gain-of-signal activity can be used to understand the reporter gene at the transcription factor-level as they relate to the gene ER. Furthermore, this assay endpoint can be referred to as a primary readout, because this assay has produced multiple assay endpoints where this one serves a reporter gene function. […]
smiles,measurement,value
Cc1nc(-c2ccc(C(F)(F)F)cc2)sc1C(=O)NCc1ccc(OC(C)(C)C(=O)O)cc1,AC50,inconclusive: 0.0823 µM

# Reference: PubChem BioAssay AID2284368 (EPA ToxCast)
